The values that follow come from publication PMC10439204.

The chains behind the UniProt entries cited, without tags or fusion partners.
UniProt Q6GQQ9: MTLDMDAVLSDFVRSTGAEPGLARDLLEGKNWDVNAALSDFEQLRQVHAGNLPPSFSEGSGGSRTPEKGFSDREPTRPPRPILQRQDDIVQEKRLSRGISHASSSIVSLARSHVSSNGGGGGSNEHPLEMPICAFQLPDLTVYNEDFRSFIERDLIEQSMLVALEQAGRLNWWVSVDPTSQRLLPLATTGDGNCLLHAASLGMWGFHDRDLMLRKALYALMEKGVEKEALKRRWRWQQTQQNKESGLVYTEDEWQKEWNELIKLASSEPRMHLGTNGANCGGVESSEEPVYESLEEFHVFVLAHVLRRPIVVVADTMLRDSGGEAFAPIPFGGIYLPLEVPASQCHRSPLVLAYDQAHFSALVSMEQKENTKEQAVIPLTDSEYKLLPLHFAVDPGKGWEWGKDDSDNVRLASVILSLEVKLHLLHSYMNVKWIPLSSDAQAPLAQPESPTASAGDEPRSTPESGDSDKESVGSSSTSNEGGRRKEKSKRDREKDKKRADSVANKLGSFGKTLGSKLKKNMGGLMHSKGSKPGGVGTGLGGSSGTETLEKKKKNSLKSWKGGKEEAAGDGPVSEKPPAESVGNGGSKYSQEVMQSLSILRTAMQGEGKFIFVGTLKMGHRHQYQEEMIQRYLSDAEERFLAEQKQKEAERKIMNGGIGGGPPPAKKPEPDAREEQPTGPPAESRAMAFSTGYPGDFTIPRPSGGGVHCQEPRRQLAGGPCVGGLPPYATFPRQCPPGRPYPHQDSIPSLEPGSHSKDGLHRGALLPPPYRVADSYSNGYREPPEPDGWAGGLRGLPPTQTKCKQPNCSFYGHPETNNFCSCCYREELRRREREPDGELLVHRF

The experiment concerns the target Cellular zinc finger anti-NF-kappa-B protein (Cezanne) (human (endogenous in PC9 and Hek 293T)) (UniProt Q6GQQ9). Description: affinity purification with mass spectrometry; Hek 293T cell lysate; IP with anti-Cezanne and protein G Plus-Agarose at 4 °C overnight, SDS-PAGE, stained band sent for LC-MS/MS.

Results are given in words; binding and its absence hold for the method and conditions named. Binding seen in cells or lysates may run through a third protein. A yes stands for co-enrichment or nearness to the bait. Other partners may have been found.

B1: CTCF (protein, UniProt P49711 1-727)
chain: MEGDAVEAIVEESETFIKGKERKTYQRRREGGQEEDACHLPQNQTDGGEVVQDVNSSVQMVMMEQLDPTLLQMKTEVMEGTVAPEAEAAVDDTQIITLQVVNMEEQPINIGELQLVQVPVPVTVPVATTSVEELQGAYENEVSKEGLAESEPMICHTLPLPEGFQVVKVGANGEVETLEQGELPPQEDPSWQKDPDYQPPAKKTKKTKKSKLRYTEEGKDVDVSVYDFEEEQQEGLLSEVNAEKVVGNMKPPKPTKIKKKGVKKTFQCELCSYTCPRRSNLDRHMKSHTDERPHKCHLCGRAFRTVTLLRNHLNTHTGTRPHKCPDCDMAFVTSGELVRHRRYKHTHEKPFKCSMCDYASVEVSKLKRHIRSHTGERPFQCSLCSYASRDTYKLKRHMRTHSGEKPYECYICHARFTQSGTMKMHILQKHTENVAKFHCPHCDTVIARKSDLGVHLRKQHSYIEQGKKCRYCDAVFHERYALIQHQKSHKNEKRFKCDQCDYACRQERHMIMHKRTHTGEKPYACSHCDKTFRQKQLLDMHFKRYHDPNFVPAAFVCSKCGKTFTRRNTMARHADNCAGPDGVEGENGGETKKSKRGRKRKMRSKKEDSSDSENAEPDLDDNEDEEEPAVEIEPEPEPQPVTPAPPPAKKRRGRPPGRTNQPKQNQPTAIIQVEDQNTGAIENIIVEVKKEPDAEPAEGEEEEAQPAATDAPNGDLTPEMILSMMDR
In the case of B1, the binding result is reported as “binds”.
